Results are given in words; binding and its absence hold for the method and conditions named. In cells and extracts the contact can be indirect. Some results given as binding are weak or reduced against the parent protein; the word gives no strength. Where a sequence is shown, tags or fusion partners need not be part of it.
Target: T1, FLAG-tagged wild-type AMOTL2 (Angiomotin-like 2) (UniProt Q9Y2J4)
T1 sequence: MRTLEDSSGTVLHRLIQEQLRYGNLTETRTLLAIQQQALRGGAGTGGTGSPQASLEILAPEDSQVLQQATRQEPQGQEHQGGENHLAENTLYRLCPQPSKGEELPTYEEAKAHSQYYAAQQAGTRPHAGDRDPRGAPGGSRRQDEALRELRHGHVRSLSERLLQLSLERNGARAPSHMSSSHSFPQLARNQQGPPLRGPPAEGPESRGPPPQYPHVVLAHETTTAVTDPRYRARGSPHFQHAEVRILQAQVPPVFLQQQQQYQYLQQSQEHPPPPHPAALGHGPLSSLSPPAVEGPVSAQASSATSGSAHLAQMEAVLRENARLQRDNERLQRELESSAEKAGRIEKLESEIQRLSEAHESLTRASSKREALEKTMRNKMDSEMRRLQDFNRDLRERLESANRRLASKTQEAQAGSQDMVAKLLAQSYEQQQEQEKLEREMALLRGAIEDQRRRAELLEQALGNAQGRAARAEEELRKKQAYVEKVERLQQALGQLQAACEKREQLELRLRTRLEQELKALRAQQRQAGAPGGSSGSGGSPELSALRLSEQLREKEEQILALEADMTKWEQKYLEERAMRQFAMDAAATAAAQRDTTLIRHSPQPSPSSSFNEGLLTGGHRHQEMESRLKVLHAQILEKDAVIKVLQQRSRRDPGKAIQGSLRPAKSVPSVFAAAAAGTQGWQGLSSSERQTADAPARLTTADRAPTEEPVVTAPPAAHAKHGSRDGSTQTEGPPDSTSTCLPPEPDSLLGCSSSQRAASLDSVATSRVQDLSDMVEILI
Test: co-IP; anti-FLAG M2 magnetic beads on lysates of HEK293T cells at high cell density co-expressing FLAG-AMOTL2 constructs and HA-YAP; overnight at 4 °C; eluted with FLAG peptide; anti-HA immunoblot

Amino acid sequences for entries named in this document (tags omitted).
UniProt P46937: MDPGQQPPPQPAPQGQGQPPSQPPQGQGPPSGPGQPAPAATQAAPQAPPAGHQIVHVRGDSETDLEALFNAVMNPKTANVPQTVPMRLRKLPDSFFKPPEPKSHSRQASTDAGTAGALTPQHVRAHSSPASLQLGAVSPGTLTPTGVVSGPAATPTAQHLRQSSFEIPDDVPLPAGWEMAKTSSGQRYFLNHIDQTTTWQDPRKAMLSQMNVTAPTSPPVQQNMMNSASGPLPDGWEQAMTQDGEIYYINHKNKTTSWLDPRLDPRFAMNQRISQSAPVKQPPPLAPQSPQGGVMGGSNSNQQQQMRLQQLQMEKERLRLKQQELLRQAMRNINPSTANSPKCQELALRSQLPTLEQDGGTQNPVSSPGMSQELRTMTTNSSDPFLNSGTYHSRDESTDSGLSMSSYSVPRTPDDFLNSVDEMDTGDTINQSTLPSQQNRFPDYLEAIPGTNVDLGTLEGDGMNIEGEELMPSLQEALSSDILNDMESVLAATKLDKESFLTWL

binding: binds
Substance: HA-tagged YAP (Yes-associated protein) (from UniProt P46937 1-504)

Reference: article PMC10735217
